Reference: PubChem BioAssay AID493014 (National Center for Advancing Translational Sciences (NCATS), 2011)
This is one part of the list. Further columns of the screen follow, without active or inactive calls. The list favours compounds with an active or inconclusive main result. Words in brackets tell the shape of the fitted curve; partial curves, single points and poor fits give uncertain potencies.

Assay: qHTS Assay to Find Inhibitors of Chronic Active B-Cell Receptor Signaling
Settings: ABC-DLBCL IkBa-CBG/CBR reporter, luminescence ratio (green luciferase fused to IkBa over red control in TMD8 lymphoma cells), 4 h
Summary of the method: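 Doxycycline induced both beetle luciferases in TMD8 lymphoma cells; IKK-driven degradation limits the IkappaBalpha-fused green signal, while red luminescence normalises for cell number and nonspecific effects. Compounds tested up to 46 uM, 4 hrs.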

[1] = measured here: CBR red luminescence, cell number
[2] = measured here: IkBa-CBG green luminescence

| Compound | AC50 [1] | AC50 [2] |
| --- | --- | --- |
| Cc1ccc(C)c(N(CC(=O)NCc2ccccc2)C(=O)c2csnn2)c1 | 4.47 µM [rising, single point] | – |
| COc1ccc(C(=O)Nc2ccc(Cl)cc2C(=O)N2CCCC(C)C2)cc1 (centres undefined) | 1.84 µM [rising, full curve] | – |
| O=C(CCCN1C(=O)/C(=C/c2ccccc2Cl)SC1=S)N1CCCC1 | 8.91 µM [falling, partial curve, poor fit] | – |
| COc1cc(CN2CCc3ccccc3C2)ccc1O | 35.5 µM [falling, single point] | – |
| O=C(CCC(=O)OCC(=O)c1ccc(Br)cc1)Nc1ccc(Br)c2cccnc12 | 2.31 µM [falling, full curve, poor fit] | – |
| Clc1ccc(/C=C/c2nc(Cl)c(-c3ccc(Cl)cc3)c(Cl)n2)cc1 | 1.26 µM [falling, partial curve, poor fit] | – |
| Nc1cc(Oc2ccc(F)cc2F)cc([N+](=O)[O-])c1 | 14.1 µM [rising, single point] | – |
| CCN(CC)S(=O)(=O)c1ccc(N/N=C(\C)c2ccncc2)nc1 | 22.4 µM [rising, partial curve, poor fit] | – |
| COc1ccc(-c2sc3ccc(OC)cc3c2C#Cc2ccccn2)cc1 | 20.6 µM [rising, partial curve] | – |
| CCOC(=O)c1ccccc1OCc1cc(/C=N/NC(=O)c2cccnc2)ccc1OC | 10 µM [falling, partial curve] | – |
| O=C(/C=C/c1ccco1)NC(=S)Nc1ccc(N2CCCC2)cc1 | 20.6 µM [falling, partial curve] | – |
| COc1cccc2c(SCC(=O)N/N=C/c3ccc(O)cc3O)cc(C)nc12 | 35.5 µM [falling, single point] | – |
| CCOC(=O)c1c(C)sc2c1N(C(C)=O)c1cc(Cl)ccc1S2 | 1.12 µM [rising, full curve, poor fit] | 7.94 µM [falling, partial curve] |
| CN(C)S(=O)(=O)c1cccc(NC(=O)CSc2nc3ccccc3[nH]2)c1 | 35.5 µM [falling, single point] | – |
| COc1ccc(CCC(=O)NCc2cnn(C)c2)cc1 | 0.731 µM [rising, partial curve, poor fit] | – |
| CCOC(=O)c1c(C)[nH]c(C(=O)CN2C(=O)NC(CC)(c3ccccc3)C2=O)c1C (centres undefined) | 0.794 µM [falling, partial curve, poor fit] | 0.708 µM [rising, full curve, poor fit] |

Rewritten with bars between the fields: part of the list above
Compound | AC50 [1] | AC50 [2]
COc1ccc(CCC(=O)NCc2cnn(C)c2)cc1 | 0.731 µM [rising, partial curve, poor fit] | –
CCOC(=O)c1c(C)[nH]c(C(=O)CN2C(=O)NC(CC)(c3ccccc3)C2=O)c1C (centres undefined) | 0.794 µM [falling, partial curve, poor fit] | 0.708 µM [rising, full curve, poor fit]

(listing goes on)

| Compound | AC50 [1] | AC50 [2] |
| --- | --- | --- |
| CC(C(=O)Nc1nccs1)c1ccc([N+](=O)[O-])cc1 (centres undefined) | 1.78 µM [rising, partial curve, poor fit] | – |
| COc1ccc(C(=O)COC(=O)/C=C/c2ccccc2)cc1 | 3.98 µM [rising, single point] | – |
| O=C(Nc1nnc(C2=COCCO2)o1)c1cccc([N+](=O)[O-])c1 | 11.2 µM [rising, partial curve, poor fit] | – |
| CNC(=O)c1sc(=S)n(-c2ccc(OC)cc2)c1N | 14.1 µM [rising, single point] | – |
| CN(CC(=O)Nc1ccc(F)cc1)C(=O)C1CCN(S(=O)(=O)c2ccc3c(c2)OCCO3)CC1 | 5.17 µM [falling, partial curve, poor fit] | – |
| CCn1nnnc1SCC(=O)Nc1nc(-c2cccs2)cs1 | 10.3 µM [falling, single point] | – |
| Cc1ccc(OCCOC(=O)c2sc(=S)n(C)c2C)cc1 | 4.47 µM [rising, full curve] | – |
| O=C(COC(=O)c1ccccc1OCc1ccc(F)cc1)NCC1CCCO1 (centres undefined) | 16.4 µM [falling, partial curve, poor fit] | – |
| COc1ccc(/C=N/n2c(C)nc3ccccc3c2=O)cc1OC | 6.31 µM [rising, partial curve, poor fit] | – |
| Cc1ccc(C(=O)N/C(=C\c2ccc(-c3cc(Cl)ccc3Cl)o2)C(=O)NCc2cccnc2)cc1 | 10 µM [falling, partial curve, poor fit] | – |
| CSc1nc2ccc3nc(NC(=O)c4ccccc4)sc3c2s1 | 8.2 µM [falling, partial curve] | – |
| O=C(/C=C/c1ccccc1Cl)N1CCN(c2ncccn2)CC1 | 6.51 µM [rising, single point] | – |
| COCCNC(=O)C1CCN(Cc2cc3ccccc3n2Cc2ccc(C)cc2)CC1 | 35.5 µM [falling, single point] | – |
| O=C(/C=C/c1cccs1)NC1CCCC1 | 35.5 µM [falling, single point] | – |
| CCOC(=O)c1c(N)sc(C(=O)OC)c1C | 14.1 µM [rising, single point] | 35.5 µM [falling, partial curve, poor fit] |
